# ± gives the standard deviation of the averaged measurements. Only a part is listed here, and it is no random draw. Small differences around the control level are noise.
# Protein sequences, listed by entry. Tags and fused reporters are not part of them. Lines headed by an entry give the natural chain unless they say otherwise; changes in a name come on top.
# UniProt Q9Y5P6: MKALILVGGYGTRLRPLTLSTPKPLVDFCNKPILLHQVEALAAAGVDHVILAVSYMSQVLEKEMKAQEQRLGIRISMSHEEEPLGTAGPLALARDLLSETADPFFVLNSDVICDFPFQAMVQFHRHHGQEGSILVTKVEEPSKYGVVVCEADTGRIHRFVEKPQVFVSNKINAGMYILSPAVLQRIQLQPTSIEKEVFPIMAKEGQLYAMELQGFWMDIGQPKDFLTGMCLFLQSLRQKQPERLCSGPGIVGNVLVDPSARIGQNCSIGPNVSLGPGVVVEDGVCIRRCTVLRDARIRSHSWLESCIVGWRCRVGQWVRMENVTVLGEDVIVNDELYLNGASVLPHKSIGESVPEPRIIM
# UniProt Q9Y680: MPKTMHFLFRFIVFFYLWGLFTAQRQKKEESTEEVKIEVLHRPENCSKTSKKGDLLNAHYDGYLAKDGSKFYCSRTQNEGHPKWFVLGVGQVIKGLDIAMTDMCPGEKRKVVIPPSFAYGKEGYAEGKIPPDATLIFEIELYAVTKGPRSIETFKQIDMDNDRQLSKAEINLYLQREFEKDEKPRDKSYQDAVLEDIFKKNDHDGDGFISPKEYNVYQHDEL
# UniProt Q9Y3P9: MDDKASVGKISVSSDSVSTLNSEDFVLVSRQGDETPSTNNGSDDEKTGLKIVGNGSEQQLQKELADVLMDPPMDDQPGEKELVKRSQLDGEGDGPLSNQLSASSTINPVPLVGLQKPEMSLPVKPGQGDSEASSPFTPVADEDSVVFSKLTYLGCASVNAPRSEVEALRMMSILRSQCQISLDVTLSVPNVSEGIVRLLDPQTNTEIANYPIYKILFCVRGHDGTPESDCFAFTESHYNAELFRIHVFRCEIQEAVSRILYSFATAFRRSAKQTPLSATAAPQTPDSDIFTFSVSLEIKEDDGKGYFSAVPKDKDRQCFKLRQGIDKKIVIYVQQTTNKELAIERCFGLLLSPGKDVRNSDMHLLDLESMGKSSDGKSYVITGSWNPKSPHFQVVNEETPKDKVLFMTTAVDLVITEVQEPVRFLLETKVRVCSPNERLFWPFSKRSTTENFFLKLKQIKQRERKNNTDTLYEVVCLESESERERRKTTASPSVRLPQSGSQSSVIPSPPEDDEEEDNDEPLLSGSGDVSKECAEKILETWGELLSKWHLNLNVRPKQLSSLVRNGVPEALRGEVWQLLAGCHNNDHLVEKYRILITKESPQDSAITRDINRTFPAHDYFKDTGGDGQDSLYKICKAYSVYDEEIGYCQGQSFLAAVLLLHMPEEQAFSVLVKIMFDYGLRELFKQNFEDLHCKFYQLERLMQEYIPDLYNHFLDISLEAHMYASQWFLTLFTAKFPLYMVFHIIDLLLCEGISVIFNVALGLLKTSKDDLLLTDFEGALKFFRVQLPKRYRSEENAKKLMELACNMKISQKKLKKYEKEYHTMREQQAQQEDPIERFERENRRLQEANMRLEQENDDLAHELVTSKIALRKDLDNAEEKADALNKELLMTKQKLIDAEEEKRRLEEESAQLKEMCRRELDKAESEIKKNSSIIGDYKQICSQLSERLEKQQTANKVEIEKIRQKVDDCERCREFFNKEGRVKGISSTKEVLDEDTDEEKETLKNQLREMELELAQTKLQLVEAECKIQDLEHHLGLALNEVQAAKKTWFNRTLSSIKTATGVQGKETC
# UniProt Q9Y6K5: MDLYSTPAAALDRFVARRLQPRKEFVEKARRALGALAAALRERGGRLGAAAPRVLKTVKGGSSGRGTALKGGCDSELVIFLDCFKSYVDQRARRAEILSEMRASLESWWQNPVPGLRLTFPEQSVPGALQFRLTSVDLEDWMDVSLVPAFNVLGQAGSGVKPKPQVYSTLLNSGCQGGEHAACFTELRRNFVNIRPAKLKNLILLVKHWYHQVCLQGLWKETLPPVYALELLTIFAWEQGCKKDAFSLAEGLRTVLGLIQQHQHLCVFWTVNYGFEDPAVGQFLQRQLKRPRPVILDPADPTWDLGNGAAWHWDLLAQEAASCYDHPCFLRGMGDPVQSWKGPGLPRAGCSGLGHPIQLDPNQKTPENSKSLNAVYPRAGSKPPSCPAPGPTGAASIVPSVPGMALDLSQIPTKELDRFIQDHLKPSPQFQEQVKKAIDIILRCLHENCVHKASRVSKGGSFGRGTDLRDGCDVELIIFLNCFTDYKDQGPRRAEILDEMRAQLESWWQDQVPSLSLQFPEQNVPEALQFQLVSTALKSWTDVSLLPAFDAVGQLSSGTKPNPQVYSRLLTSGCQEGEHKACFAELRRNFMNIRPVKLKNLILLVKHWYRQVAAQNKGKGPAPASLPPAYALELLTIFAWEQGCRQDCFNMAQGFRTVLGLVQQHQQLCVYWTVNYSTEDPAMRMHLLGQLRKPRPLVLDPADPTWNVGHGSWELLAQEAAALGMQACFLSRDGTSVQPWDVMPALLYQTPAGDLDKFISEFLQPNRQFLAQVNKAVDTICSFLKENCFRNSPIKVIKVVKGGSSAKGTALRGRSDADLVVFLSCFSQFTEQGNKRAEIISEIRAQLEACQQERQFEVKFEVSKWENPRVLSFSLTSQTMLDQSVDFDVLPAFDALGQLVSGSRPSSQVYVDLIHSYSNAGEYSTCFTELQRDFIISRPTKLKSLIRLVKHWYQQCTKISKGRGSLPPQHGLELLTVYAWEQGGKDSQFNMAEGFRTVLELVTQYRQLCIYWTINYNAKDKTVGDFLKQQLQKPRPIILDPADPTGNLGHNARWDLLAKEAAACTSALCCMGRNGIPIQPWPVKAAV
# UniProt Q9Y4X5: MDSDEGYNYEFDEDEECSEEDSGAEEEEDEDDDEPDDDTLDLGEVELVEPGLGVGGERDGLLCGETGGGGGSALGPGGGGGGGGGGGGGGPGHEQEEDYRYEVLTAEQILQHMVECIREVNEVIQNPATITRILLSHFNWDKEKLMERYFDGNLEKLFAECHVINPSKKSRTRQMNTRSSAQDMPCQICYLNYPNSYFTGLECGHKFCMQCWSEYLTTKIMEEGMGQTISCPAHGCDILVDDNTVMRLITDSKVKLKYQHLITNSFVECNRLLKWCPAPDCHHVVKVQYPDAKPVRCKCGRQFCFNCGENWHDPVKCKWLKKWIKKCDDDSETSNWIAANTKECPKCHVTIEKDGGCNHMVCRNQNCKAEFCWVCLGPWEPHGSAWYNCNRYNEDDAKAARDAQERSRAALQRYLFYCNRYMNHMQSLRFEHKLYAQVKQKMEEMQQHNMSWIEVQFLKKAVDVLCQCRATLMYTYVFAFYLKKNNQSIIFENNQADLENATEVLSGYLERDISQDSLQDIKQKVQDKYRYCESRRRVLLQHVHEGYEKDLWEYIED
# UniProt Q9Y5Q8: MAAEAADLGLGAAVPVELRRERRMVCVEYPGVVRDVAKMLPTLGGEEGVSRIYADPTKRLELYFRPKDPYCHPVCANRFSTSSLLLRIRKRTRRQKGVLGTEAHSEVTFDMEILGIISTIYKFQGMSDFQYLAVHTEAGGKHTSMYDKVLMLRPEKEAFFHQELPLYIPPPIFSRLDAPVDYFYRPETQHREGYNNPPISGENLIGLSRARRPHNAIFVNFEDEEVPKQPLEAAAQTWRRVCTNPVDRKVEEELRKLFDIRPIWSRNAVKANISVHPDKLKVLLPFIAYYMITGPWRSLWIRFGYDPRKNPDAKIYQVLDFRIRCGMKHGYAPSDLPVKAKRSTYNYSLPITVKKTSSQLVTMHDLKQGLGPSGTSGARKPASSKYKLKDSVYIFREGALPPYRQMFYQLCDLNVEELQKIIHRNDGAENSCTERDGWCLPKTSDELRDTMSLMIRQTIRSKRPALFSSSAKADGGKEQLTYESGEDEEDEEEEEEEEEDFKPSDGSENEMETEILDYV
# UniProt Q9UBI1, whole entry: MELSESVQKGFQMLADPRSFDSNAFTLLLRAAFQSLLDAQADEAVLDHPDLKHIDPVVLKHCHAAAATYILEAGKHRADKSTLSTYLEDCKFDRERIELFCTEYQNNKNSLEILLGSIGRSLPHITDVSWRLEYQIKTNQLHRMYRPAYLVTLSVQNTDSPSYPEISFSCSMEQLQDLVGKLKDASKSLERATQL
# Compound: Nc1ncnc2c1ncn2[C@@H]1O[C@H](COP(=O)(O)OP(=O)(O)NP(=O)(O)O)[C@@H](O)[C@H]1O [adenylyl imidodiphosphate]
# Test: NP40-soluble protein abundance relative to vehicle (solubility fold change) (ratio); higher = more soluble protein in presence of AMP-PNP
# Method in brief: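 Crude Jurkat lysate, prepared by Dounce homogenisation, was exposed to eight concentrations from 0.1 to 10 mM for 10 min at room temperature and then 3 min at 37 °C. Solubilisation used 0.8% NP40 with benzonase for 60 min at 4 °C, followed by ultracentrifugation and TMT labelling of the supernatant for LC-MS/MS. After vsn normalisation of intensities, each value is the fold change against the detergent-processed vehicle within each replicate, across three independent experiments.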
Target,NP40-soluble protein abundance (concentration: 0.1mM),NP40-soluble protein abundance (concentration: 0.5mM)
UniProt Q9Y5P6 and related entries,1.01 ± 0.028,0.979 ± 0.043
UniProt Q9Y680 and related entries,0.969 ± 0.018,1 ± 0.029
RABGAP1 (UniProt Q9Y3P9),0.964 ± 0.026,0.958 ± 0.038
OAS3 (UniProt Q9Y6K5),0.996 ± 0.016,0.9809 ± 0.007
ARIH1 (UniProt Q9Y4X5),0.973 ± 0.029,0.973 ± 0.036
UniProt Q9Y5Q8 and related entries,1.01 ± 0.042,0.956 ± 0.042
R4GMX3 and related entries (UniProt Q9UBI1),1.03 ± 0.018,0.963 ± 0.025

# Reference: the supplement of paper PMC6411743
